# Laboratory results taken from the supplement of paper PMC12067093, “Discovery and optimisation of a covalent ligand for TRIM25 and its application to targeted protein ubiquitination” (Chemical Science, 2025).
# By UniProt entry, the sequences of proteins in these tests, tags left out. Where a name states a change or a piece, a line headed by the entry shows the natural chain unless it says otherwise.
# UniProt Q9NRG9: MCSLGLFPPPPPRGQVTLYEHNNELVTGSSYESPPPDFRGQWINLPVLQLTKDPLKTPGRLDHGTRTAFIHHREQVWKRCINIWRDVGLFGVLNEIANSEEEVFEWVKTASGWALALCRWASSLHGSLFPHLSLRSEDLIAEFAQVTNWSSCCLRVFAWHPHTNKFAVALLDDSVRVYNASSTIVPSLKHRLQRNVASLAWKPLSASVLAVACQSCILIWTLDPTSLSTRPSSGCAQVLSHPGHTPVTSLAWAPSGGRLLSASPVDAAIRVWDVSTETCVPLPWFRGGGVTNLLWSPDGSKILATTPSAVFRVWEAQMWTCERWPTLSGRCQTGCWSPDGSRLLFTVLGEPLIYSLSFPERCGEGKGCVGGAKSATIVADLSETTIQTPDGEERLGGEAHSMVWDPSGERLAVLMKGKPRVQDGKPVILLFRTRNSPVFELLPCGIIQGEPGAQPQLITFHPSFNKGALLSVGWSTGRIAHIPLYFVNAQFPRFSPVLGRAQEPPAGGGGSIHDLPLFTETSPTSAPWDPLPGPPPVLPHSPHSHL
# UniProt Q12979: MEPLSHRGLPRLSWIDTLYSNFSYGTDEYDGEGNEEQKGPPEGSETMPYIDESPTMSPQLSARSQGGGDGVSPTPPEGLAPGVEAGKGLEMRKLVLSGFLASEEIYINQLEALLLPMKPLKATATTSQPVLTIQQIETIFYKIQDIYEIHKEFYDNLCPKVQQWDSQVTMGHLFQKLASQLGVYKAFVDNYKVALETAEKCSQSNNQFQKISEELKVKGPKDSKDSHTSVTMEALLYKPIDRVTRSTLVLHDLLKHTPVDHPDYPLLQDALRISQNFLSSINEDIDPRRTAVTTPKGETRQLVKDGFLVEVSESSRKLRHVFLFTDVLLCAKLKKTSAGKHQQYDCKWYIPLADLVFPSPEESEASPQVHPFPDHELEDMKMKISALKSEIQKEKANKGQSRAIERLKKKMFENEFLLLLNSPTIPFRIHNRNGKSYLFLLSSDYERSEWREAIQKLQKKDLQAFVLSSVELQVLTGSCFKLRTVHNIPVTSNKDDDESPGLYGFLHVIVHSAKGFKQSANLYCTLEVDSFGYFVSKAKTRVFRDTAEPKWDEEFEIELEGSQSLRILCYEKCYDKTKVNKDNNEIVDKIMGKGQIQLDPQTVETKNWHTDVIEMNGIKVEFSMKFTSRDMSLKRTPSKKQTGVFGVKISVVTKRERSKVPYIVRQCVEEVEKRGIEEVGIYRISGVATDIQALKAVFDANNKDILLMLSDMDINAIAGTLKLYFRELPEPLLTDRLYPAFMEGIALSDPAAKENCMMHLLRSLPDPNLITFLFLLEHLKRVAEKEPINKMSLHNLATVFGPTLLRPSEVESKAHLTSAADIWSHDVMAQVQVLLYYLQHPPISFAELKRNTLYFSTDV
# UniProt P01023, whole entry: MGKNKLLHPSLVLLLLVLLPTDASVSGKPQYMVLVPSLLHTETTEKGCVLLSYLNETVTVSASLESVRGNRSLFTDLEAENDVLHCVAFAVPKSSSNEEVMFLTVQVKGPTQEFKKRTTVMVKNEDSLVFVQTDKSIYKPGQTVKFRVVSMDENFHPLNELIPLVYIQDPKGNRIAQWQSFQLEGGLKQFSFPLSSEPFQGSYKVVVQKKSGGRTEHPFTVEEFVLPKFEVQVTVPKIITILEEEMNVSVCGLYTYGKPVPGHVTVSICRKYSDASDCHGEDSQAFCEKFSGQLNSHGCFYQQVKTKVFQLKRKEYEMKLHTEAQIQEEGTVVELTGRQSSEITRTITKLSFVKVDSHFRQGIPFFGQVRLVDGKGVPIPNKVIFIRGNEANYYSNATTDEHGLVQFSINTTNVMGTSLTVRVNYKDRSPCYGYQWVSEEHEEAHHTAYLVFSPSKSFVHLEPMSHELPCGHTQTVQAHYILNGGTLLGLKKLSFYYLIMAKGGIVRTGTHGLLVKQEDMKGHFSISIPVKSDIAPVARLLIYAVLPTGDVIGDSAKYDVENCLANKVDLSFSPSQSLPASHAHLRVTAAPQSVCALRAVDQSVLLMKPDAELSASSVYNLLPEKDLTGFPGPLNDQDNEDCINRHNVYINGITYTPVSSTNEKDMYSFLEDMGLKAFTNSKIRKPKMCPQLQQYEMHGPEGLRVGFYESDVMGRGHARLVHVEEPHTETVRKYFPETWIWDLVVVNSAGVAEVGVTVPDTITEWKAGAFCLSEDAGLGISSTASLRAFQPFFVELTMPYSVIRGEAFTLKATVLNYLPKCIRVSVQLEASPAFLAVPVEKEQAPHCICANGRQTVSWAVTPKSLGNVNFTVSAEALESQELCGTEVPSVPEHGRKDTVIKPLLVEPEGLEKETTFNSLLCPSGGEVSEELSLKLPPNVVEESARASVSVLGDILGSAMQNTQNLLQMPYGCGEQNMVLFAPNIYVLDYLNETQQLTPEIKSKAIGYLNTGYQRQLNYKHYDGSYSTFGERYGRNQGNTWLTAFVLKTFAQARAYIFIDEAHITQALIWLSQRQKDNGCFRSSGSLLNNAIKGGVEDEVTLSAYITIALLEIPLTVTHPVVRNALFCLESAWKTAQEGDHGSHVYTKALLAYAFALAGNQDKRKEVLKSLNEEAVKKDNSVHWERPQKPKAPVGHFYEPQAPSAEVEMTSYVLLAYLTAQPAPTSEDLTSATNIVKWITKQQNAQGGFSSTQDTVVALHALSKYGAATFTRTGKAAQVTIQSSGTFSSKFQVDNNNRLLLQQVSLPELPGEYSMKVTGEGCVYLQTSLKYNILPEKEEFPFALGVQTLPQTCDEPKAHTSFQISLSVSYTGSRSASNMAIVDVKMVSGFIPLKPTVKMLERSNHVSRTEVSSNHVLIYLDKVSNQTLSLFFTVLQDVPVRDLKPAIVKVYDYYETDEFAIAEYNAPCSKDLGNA
# UniProt Q9H3P7: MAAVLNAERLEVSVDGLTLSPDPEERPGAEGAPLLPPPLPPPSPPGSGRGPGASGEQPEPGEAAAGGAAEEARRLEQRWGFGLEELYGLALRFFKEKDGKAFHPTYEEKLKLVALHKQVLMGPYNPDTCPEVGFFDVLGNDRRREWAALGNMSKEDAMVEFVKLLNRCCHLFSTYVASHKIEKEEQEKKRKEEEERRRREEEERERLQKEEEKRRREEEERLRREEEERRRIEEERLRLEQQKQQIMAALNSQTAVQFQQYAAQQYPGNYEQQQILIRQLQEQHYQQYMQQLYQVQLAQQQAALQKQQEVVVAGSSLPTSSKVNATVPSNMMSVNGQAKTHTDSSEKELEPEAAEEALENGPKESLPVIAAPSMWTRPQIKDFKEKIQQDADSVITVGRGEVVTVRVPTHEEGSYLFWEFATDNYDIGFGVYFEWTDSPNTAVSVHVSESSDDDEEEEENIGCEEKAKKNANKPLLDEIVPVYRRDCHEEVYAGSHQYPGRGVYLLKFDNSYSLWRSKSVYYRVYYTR
# UniProt Q8IZP0: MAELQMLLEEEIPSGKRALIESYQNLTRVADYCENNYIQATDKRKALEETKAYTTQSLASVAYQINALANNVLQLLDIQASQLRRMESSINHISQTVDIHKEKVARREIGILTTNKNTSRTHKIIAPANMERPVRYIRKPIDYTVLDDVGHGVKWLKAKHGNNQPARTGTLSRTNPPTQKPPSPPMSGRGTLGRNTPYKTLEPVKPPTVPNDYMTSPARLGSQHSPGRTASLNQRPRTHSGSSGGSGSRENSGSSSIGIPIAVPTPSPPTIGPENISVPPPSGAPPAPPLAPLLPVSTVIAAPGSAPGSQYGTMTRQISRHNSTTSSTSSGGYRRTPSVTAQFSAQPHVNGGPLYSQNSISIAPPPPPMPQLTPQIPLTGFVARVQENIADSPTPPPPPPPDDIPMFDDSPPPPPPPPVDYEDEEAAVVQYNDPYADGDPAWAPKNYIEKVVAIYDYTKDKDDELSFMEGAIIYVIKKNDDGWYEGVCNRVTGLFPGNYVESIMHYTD
# UniProt P09110: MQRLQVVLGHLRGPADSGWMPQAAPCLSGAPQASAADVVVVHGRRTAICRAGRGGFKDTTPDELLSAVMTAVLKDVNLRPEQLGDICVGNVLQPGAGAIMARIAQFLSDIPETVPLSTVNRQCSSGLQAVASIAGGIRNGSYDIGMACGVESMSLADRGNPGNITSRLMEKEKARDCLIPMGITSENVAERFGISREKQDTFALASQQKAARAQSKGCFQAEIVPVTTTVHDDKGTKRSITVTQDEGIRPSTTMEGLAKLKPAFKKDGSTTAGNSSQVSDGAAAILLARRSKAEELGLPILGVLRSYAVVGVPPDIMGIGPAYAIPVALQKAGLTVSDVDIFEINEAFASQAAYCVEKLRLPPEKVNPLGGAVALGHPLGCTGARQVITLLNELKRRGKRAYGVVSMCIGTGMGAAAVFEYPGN
# UniProt P49753: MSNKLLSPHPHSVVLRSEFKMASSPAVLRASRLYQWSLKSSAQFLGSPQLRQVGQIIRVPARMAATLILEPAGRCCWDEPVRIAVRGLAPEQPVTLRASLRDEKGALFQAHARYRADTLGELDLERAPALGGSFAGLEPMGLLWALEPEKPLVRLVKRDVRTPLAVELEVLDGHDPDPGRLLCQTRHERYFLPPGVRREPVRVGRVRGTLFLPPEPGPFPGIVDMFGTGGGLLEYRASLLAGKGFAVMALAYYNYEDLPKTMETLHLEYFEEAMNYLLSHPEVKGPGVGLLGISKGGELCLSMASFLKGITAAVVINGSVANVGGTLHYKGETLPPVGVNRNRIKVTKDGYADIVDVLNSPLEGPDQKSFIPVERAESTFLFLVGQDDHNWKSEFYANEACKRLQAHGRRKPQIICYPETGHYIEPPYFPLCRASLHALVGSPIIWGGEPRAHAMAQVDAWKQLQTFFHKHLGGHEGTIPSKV
# UniProt P49588, whole entry, looked up: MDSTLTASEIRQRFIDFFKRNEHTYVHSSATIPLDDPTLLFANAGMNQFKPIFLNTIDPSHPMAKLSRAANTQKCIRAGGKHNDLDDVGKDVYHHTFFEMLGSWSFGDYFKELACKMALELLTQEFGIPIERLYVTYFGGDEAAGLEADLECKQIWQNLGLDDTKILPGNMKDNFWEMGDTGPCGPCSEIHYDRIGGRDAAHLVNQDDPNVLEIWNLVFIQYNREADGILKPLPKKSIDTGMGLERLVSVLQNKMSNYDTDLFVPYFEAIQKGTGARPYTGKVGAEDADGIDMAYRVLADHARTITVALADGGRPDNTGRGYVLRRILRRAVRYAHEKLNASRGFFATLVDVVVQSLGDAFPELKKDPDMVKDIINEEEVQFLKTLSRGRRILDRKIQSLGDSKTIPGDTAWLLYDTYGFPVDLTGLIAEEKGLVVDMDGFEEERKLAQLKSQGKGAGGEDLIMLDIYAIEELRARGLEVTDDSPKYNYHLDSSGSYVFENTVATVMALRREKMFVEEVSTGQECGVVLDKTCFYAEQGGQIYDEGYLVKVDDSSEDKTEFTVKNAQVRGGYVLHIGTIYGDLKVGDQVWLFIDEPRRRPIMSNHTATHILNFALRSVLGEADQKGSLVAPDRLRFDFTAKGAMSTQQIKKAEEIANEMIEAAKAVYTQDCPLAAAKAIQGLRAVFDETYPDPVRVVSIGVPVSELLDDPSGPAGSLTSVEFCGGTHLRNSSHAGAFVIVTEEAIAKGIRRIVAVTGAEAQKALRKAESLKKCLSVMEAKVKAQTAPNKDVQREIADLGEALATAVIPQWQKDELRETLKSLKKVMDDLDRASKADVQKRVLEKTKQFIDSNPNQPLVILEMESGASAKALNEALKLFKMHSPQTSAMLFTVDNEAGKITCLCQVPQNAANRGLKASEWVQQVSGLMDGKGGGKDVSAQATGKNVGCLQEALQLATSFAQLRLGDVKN
# UniProt P42765: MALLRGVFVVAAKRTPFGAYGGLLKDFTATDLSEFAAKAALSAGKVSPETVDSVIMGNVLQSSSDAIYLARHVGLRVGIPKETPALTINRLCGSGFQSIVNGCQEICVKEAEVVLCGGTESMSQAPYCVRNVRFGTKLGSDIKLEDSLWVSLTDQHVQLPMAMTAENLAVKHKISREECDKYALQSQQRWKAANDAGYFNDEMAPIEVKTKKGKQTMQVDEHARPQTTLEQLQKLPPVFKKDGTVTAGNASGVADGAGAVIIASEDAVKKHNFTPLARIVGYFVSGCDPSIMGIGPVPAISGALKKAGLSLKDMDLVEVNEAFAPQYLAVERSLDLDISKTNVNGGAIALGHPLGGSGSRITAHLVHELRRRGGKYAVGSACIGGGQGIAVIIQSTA
# This is one part of the list.
# Compound: CC1Cc2ccccc2N1C(=O)C1CCCN(C1)C(=O)CCl (mixture of isomers) [TRIM25 ligand 11 (diastereomer mixture)]
# Test: probe-labelled cysteine peptide fold change vs DMSO (competition) (log2 fold change); higher = less target engagement (more negative = stronger competition)
# Conditions: THP-1, incubation time: 4 h
# 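Further: competitive chemoproteomic profiling in live THP-1 cells with an iodoacetamide desthiobiotin (IA-DTB) probe, comparing probe-labelled peptide intensities in compound-treated cells against DMSO-treated controls.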
Target,probe-labelled cysteine peptide fold change (10 µM),probe-labelled cysteine peptide fold change (50 µM)
ACO2_Q99798_332_DHLVPDPGCHYDQLIEINLSELKPHINGPFTPDLAHPVAEVGK (UniProt Q99798),0.0137,0.0386
AAAS_Q9NRG9_279_VWDVSTETCVPLPWFR (UniProt Q9NRG9),0.508,0.251
ABR_Q12979_756_ENCMMHLLR (UniProt Q12979),-0.00366,0.00476
A2M_P01023_299_FSGQLNSHGCFYQQVK (UniProt P01023),0.155,0.133
ACBD3_Q9H3P7_129_QVLMGPYNPDTCPEVGFFDVLGNDRR (UniProt Q9H3P7),0.0343,-0.0614
ABI1_Q8IZP0_488_KNDDGWYEGVCNR (UniProt Q8IZP0),-0.0466,-0.111
ACACA_Q13085_1230_MSFSSNLNHYGMTHVASVSDVLLDNSFTPPCQR (UniProt Q13085),-0.0851,-0.149
ACAA1_P09110_87_DVNLRPEQLGDICVGNVLQPGAGAIMAR (UniProt P09110),0.0464,0.0319
ACOT2_P49753_300_GGELCLSMASFLK (UniProt P49753),0.0491,-0.0178
AARS_P49588_184+187_DNFWEMGDTGPCGPCSEIHYDR (UniProt P49588),0.105,-0.0756
ABCF3_Q9NUQ8_522_ICVVGENGAGK (UniProt Q9NUQ8),0.00841,-0.129
ABCE1_P61221_65_KCPFGALSIVNLPSNLEK (UniProt P61221),-0.0198,0.0904
ACAA2_P42765_116+128_EAEVVLCGGTESMSQAPYCVR (UniProt P42765),-0.275,-0.126

# Whole records from above:
# A2M_P01023_299_FSGQLNSHGCFYQQVK (UniProt P01023) as listed: probe-labelled cysteine peptide fold change (10 µM): 0.155; probe-labelled cysteine peptide fold change (50 µM): 0.133
# ABCE1_P61221_65_KCPFGALSIVNLPSNLEK (UniProt P61221) as listed: probe-labelled cysteine peptide fold change (10 µM): -0.0198; probe-labelled cysteine peptide fold change (50 µM): 0.0904
